These are literature values, as cited in article PMC4967259 (The American journal on addictions / American Academy of …, 2016).

For series [1] the following is noted: cited from earlier work.
The test system of another series is BuChE. The following applies: rat brain homogenate; cited from earlier work.

Consider `COc1cc2c(cc1OC)C(=O)C(CC1CCN(Cc3ccccc3)CC1)C2` (stereo not drawn) [Donepezil, donepezil], for which, in series [1], the elimination half-life was 73.5 h and the protein binding entry is reported as “highly protein bound”. The “inhibition of BuChE” value in the series on BuChE is reported as “only weak inhibition”.
